# Drug screen on melanoma cell lines: apoptosis marker

Data from the primary screen of doi:10.1371/journal.pone.0140310, rounded.

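The test systems are human melanoma cell lines, treated with two drugs together for 72 h and then stained and imaged. Values are the share of nuclei positive for cleaved PARP as a percentage of the same share in the DMSO control: 100 is the control level, higher means more apoptosis. Every drug was used at one fixed concentration, the higher of two screened. No replicate spread is given; individual values may be noisy. Basal and induced levels differ widely between cell lines.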
This is part of the screen, not chosen by result.
An entry leaves out what has no value listed here.

All values are for the listed drug together with L-779450 (1 µM): Oc1cc(-c2nc(-c3ccccc3)[nH]c2-c2ccncc2)ccc1Cl

Partner: C[C@]1(O)C[C@@H](c2nc(-c3ccc4ccc(-c5ccccc5)nc4c3)c3c(N)nccn32)C1 at 2 µM
501mel: 42.2
SK-MEL-5: 104
WM3526: 299
SK-MEL-28: 240
LB2518-MEL: 124

Partner: C[C@@H](N)c1ccc(C(=O)Nc2ccnc3[nH]ccc23)cc1 at 2 µM
501mel: 69.9
SK-MEL-5: 36.7
WM3526: 309
SK-MEL-28: 289
LB2518-MEL: 189

Partner: CN(NC(=O)CC(=O)NN(C)C(=S)c1ccccc1)C(=S)c1ccccc1 at 0.03 µM
501mel: 558
SK-MEL-5: 815
WM3526: 180
SK-MEL-28: 1720
LB2518-MEL: 145

Partner: O=C(Oc1ccc([N+](=O)[O-])cc1)N1CCC(C(O)(c2ccc3c(c2)OCO3)c2ccc3c(c2)OCO3)CC1 at 5 µM
501mel: 135
SK-MEL-5: 216
WM3526: 201
SK-MEL-28: 86.8
LB2518-MEL: 53.1

Partner: CC[C@]1(O)C[C@H]2CN(CCc3c([nH]c4ccccc34)[C@@](C(=O)OC)(c3cc4c(cc3OC)N(C=O)[C@H]3[C@@](O)(C(=O)OC)[C@H](OC(C)=O)[C@]5(CC)C=CCN6CC[C@]43[C@@H]65)C2)C1 at 0.0005 µM
501mel: 35.1
SK-MEL-5: 413
WM3526: 1020
SK-MEL-28: 220
LB2518-MEL: 107

Partner: Oc1nc(-c2ccc(C(F)(F)F)cc2)nc2c1CSCC2 at 10 µM
501mel: 61.0
SK-MEL-5: 189
WM3526: 160
SK-MEL-28: 366
LB2518-MEL: 74.8

Partner: COC(=O)c1sccc1S(=O)(=O)Nc1ccc(Nc2ccccc2)cc1OC at 5 µM
SK-MEL-5: 207
WM3526: 187
SK-MEL-28: 59.5

Partner: C[C@@H]1CCN(C(=O)CC#N)C[C@@H]1N(C)c1ncnc2[nH]ccc12 at 5 µM
501mel: 105
SK-MEL-5: 209
WM3526: 207
SK-MEL-28: 82.7
LB2518-MEL: 66.0

Partner: CN(c1ncccc1CNc1nc(Nc2ccc3c(c2)CC(=O)N3)ncc1C(F)(F)F)S(C)(=O)=O at 0.4 µM
501mel: 167
SK-MEL-5: 63.7
WM3526: 240
SK-MEL-28: 106
LB2518-MEL: 124

Partner: Cn1c(=O)n(-c2ccc(C(C)(C)C#N)cc2)c2c3cc(-c4cnc5ccccc5c4)ccc3ncc21 at 0.02 µM
501mel: 142
SK-MEL-5: 226
WM3526: 230
SK-MEL-28: 177
LB2518-MEL: 53.5

Partner: Cn1cnc2c(F)c(Nc3ccc(Br)cc3Cl)c(C(=O)NOCCO)cc21 at 0.075 µM
501mel: 129
SK-MEL-5: 1230
WM3526: 2300
SK-MEL-28: 300
LB2518-MEL: 126

Partner: O=C(Nc1cc(C(F)(F)F)cc(C(F)(F)F)c1)c1cc(Cl)ccc1O at 0.08 µM
501mel: 47.5
SK-MEL-5: 132
WM3526: 74.5
SK-MEL-28: 149
LB2518-MEL: 32.8

Partner: Cn1cc(/C=C2\C(=O)Nc3cccnc32)c2ccccc21 at 2 µM
501mel: 311
SK-MEL-5: 630
WM3526: 317
SK-MEL-28: 91.7
LB2518-MEL: 77.7

Partner: Nc1nc(F)nc2c1ncn2[C@@H]1O[C@H](CO)[C@@H](O)[C@@H]1O at 1 µM
501mel: 437
SK-MEL-5: 2020
WM3526: 3220
SK-MEL-28: 2510
LB2518-MEL: 61.9

Partner: O=C(/C=C/c1cccnc1)NCCCCC1CCN(C(=O)c2ccccc2)CC1 at 0.05 µM
501mel: 117
SK-MEL-5: 55.2
WM3526: 110
SK-MEL-28: 63.2
LB2518-MEL: 617

Partner: Cn1cncc1[C@@](N)(c1ccc(Cl)cc1)c1ccc2c(c1)c(-c1cccc(Cl)c1)cc(=O)n2C at 0.05 µM
501mel: 71.6
SK-MEL-5: 139
WM3526: 257
SK-MEL-28: 78.8
LB2518-MEL: 123

Partner: Cc1cc(N2CCOCC2)cc2[nH]c(-c3c(NC[C@@H](O)c4cccc(Cl)c4)cc[nH]c3=O)nc12 at 1 µM
SK-MEL-5: 291
WM3526: 725
SK-MEL-28: 437

Partner: O=S(=O)(c1ccccc1)N(CC(F)(F)F)c1ccc(C(O)(C(F)(F)F)C(F)(F)F)cc1 at 7 µM
501mel: 72.2
SK-MEL-5: 193
WM3526: 470
SK-MEL-28: 78.0
LB2518-MEL: 40.0

Partner: Nc1cccc2c1CN(C1CCC(=O)NC1=O)C2=O (centres unmarked) at 5 µM
501mel: 103
SK-MEL-5: 3460
WM3526: 366
SK-MEL-28: 122
LB2518-MEL: 85.8

Partner: NC(=O)Nc1cc(-c2cccc(F)c2)sc1C(=O)N[C@H]1CCCNC1 at 0.1 µM
501mel: 225
SK-MEL-5: 113
WM3526: 217
SK-MEL-28: 533
LB2518-MEL: 124

Partner: COc1cc2ncnc(Nc3ccc(Oc4ccccc4)cc3)c2cc1OC at 10 µM
501mel: 126
SK-MEL-5: 124
WM3526: 204
SK-MEL-28: 190
LB2518-MEL: 54.1

Partner: CC(=O)O[C@@]12CO[C@@H]1C[C@H](O)[C@@]1(C)C(=O)[C@H](O)C3=C(C)[C@@H](OC(=O)[C@H](O)[C@@H](NC(=O)OC(C)(C)C)c4ccccc4)C[C@@](O)([C@@H](OC(=O)c4ccccc4)[C@H]21)C3(C)C at 0.0005 µM
501mel: 185
SK-MEL-5: 467
WM3526: 2370
SK-MEL-28: 471
LB2518-MEL: 572

Partner: C=CCNC1=C2C[C@@H](C)C[C@H](OC)[C@H](O)[C@@H](C)/C=C(\C)[C@H](OC(N)=O)[C@@H](OC)/C=C\C=C(/C)C(=O)NC(=CC1=O)C2=O at 0.01 µM
501mel: 206
SK-MEL-5: 188
WM3526: 207
SK-MEL-28: 275
LB2518-MEL: 44.7

Repeated from the top, 2 entries:

Partner,501mel,SK-MEL-5,WM3526,SK-MEL-28,LB2518-MEL
C[C@]1(O)C[C@@H](c2nc(-c3ccc4ccc(-c5ccccc5)nc4c3)c3c(N)nccn32)C1 at 2 µM,42.2,104,299,240,124
C[C@@H](N)c1ccc(C(=O)Nc2ccnc3[nH]ccc23)cc1 at 2 µM,69.9,36.7,309,289,189